Results taken from PubChem BioAssay AID504834 (National Center for Advancing Translational Sciences (NCATS), 2011).
About 22,000 (6.9%) of roughly 320,000 compounds were called active. Inconclusive results, whose numbers are uncertain, are shown with a selection of clear calls. The call rests on the fitted dose curve; in most records, active means well fitted inhibition curve with a large enough effect; inconclusive means small, poorly fitted or top-dose-only effect, or another doubt; inactive means no such curve, though single readings can be large or run the other way. Potencies of inconclusive entries are doubtful fits and often do not repeat.

Test: Primary qHTS for delayed death inhibitors of the malarial parasite plastid, 96 hour incubation
Conditions: P. falciparum luciferase reporter growth; series mostly up to 28.7 µM
Method in brief: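 Luminescence readout: decreased luciferase signal marks inhibited growth of reporter-expressing P. falciparum in infected red cells (2% hematocrit, 0.05% parasitemia final), exposed to compound two generations (96 h, 37 C, 5% CO2).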
Potency means the concentration at half of the fitted maximal effect.

Row | Compound | Potency
1 | Cc1ccccc1S(=O)(=O)Cc1ccc(C(=O)NCCCN2CCC(C)CC2)o1 | inactive
2 | COc1cccc2cc(C(=O)N3CCC(C)CC3)c(=O)oc12 | inconclusive: 1.65 µM [inhibitor, partial curve, poor fit]
3 | COc1cc(C(=O)NCCC(=O)NC(C)CCc2ccccc2)cc(OC)c1OC (stereo not given) | inactive
4 | COc1ccccc1C1/C(=C(/O)c2ccccc2)C(=O)C(=O)N1CC(C)O (stereo not given) | inconclusive: 2.94 µM [inhibitor, partial curve]
5 | COc1ccc(NC(=O)/C(C#N)=C/c2cccnc2)c(OC)c1 | active: 1.04 µM
6 | CCCCN(CC)CCCNC(=O)c1cc2cc3ccc(OC)cc3nc2o1 | active: 3.7 µM
7 | CNC(=S)N(C)CCc1cc2c(c(OC)c1/C=C1/C(=O)NC(=O)N(C)C1=O)OCO2 | inconclusive: 11.7 µM [inhibitor, single point]
8 | CCCn1c2ccc(C)cc2c2nnc(SCCN3CCOCC3)nc21 | inactive
9 | O=c1sc2ccccc2c(N2CCN(c3ccccc3)CC2)c1[N+](=O)[O-] | inconclusive: 14.7 µM [inhibitor, partial curve, poor fit]
10 | O=[N+]([O-])c1ccc2c(c1Nc1ccccc1Cl)=NC1(CCCCC1)N=2 | inconclusive: 0.37 µM [inhibitor, full curve]
11 | CN(C(=O)CSc1nc2cc(Cl)ccc2c(=O)n1Cc1ccco1)C1CCS(=O)(=O)C1 (stereo not given) | inconclusive: 3.7 µM [inhibitor, partial curve, poor fit]
12 | Oc1cccc(/C=N/NC(=S)Nc2cccnc2)c1O | inconclusive: 0.0738 µM [inhibitor, full curve, poor fit]
13 | CC(C)N1CCN(Cc2cccn2-c2cccnc2)CC1CCO (stereo not given) | inconclusive: 14.7 µM [inhibitor, single point]
14 | CCCCn1c(N)c(N(CC(C)C)C(=O)CCCc2cccs2)c(=O)[nH]c1=O | inconclusive: 18.5 µM [inhibitor, single point]
15 | COc1cc(C2C(C#N)=C(N)Oc3cc(C)n(CC4CCCO4)c(=O)c32)cc2c1OCO2 (stereo not given) | inconclusive: 0.165 µM [inhibitor, full curve, poor fit]
16 | Cc1cc2c(Nc3ccc(O)cc3)ncnc2s1 | inconclusive: 18.5 µM [inhibitor, single point]
17 | CCOC(=O)C1CCCN(c2nc3ccccc3nc2C(C#N)C(=O)OC(C)C)C1 (stereo not given) | inconclusive: 10.4 µM [inhibitor, single point]
18 | CC(C(=O)NC(=O)NC1CCCCC1)N(C)CC(=O)Nc1ccc(F)c(F)c1F (stereo not given) | inconclusive: 13.1 µM [inhibitor, single point]
19 | Cn1cc(CN(CCO)Cc2cccs2)c(-c2ccccc2F)n1 | inconclusive: 18.5 µM [inhibitor, single point]
20 | COc1cc(CCC(=O)Nc2ncc(C)s2)cc(OC)c1OC | inactive
21 | COc1cccc(CN(C(=O)Cc2c[nH]c3ccccc23)C(C(=O)NC2CCCCC2)c2ccc(C)o2)c1 (stereo not given) | inconclusive: 8.28 µM [inhibitor, partial curve, poor fit]
22 | CCCn1cc(CN2CCc3ccc(NC(=O)C4CCCO4)cc3C2)c(C)n1 (stereo not given) | inconclusive: 13.1 µM [inhibitor, single point]
23 | O=C(NCCCO)C(=O)NCCc1ccc(Cl)cc1 | inconclusive: 9.28 µM [inhibitor, single point]
24 | Cc1cc(Cl)c(OCCCNCc2ccccc2)c(Br)c1 | inconclusive: 10.4 µM [inhibitor, partial curve, poor fit]

Row | Compound | Potency
25 | CC(=O)Nc1ccc(CN2CCN(CCC(C)C)C(CCO)C2)cc1 (stereo not given) | inconclusive: 11.7 µM [inhibitor, single point]
26 | Cc1ccc(OCCC(=O)N(CC(=O)Nc2ccccc2C(F)(F)F)Cc2ccco2)cc1 | inconclusive: 9.28 µM [inhibitor, partial curve]
27 | O=C(NC(=O)N1CCN(c2ccc(F)cc2)CC1)c1ccccc1 | inconclusive: 1.85 µM [inhibitor, partial curve, poor fit]
28 | COc1cc(OC)cc(C(=O)NNC(=O)c2ccccn2)c1 | inconclusive: 3.29 µM [inhibitor, single point]
29 | COc1cccc(NC(=O)c2ccc(-c3ccc([N+](=O)[O-])cc3)o2)c1 | inconclusive: 0.415 µM [inhibitor, full curve, poor fit]
30 | COC(=O)c1sc2nc3c(cc2c1N)CCCC3 | inactive
31 | Cc1ccccc1NC(=O)C1Cc2ccccc2C(=O)O1 (stereo not given) | inactive
32 | CC1(C)CC(=O)C=C(NNC(=O)OC(C)(C)C)C1 | inactive
33 | COc1cccc(C(=O)OC(C)CN2CCCC2)c1 (stereo not given) | active: 4.15 µM
34 | S=C(c1cn(CCOc2cccc3ccccc23)c2ccccc12)N1CCCC1 | inconclusive: 18.5 µM [inhibitor, single point]
35 | CN(C)Cc1nc2ccccc2c(=O)n1Cc1nc(C(C)(C)C)cs1 | inactive
36 | CC(C)(C)C(=O)Nc1sc2c(c1-c1nc3ccccc3[nH]1)CCCC2 | inconclusive: 10.4 µM [inhibitor, single point]
37 | CCOC(=O)c1cccnc1NC(=O)c1ccncc1 | inactive
38 | Cc1noc(C)c1C(=O)N(CC(C)C)c1nc2ccccc2s1 | inconclusive: 10.4 µM [inhibitor, partial curve, poor fit]
39 | CCOC(=O)c1c(-c2ccc(C)cc2)csc1NC1=NS(=O)(=O)c2ccccc21 | inactive
40 | Cc1cc(C)c(C#N)c(N2CCC(C(N)=O)CC2)n1 | inconclusive: 3.29 µM [inhibitor, partial curve, poor fit]
41 | Cc1ccc2cc(CN(Cc3ccco3)C(=S)NCC3CCCO3)c(=O)[nH]c2c1C (stereo not given) | inconclusive: 13.1 µM [inhibitor, single point]
42 | CCOC(=O)Cc1n[nH]c(=O)c2ccccc12 | inconclusive: 2.08 µM [inhibitor, full curve, poor fit]
43 | Clc1ccc2nc(-c3ccccc3)cn2c1 | inactive
44 | COc1ccc(/C=N/NC(=O)c2ccc(CN3c4cccc5cccc(c45)S3(=O)=O)cc2)cc1 | inconclusive: 4.15 µM [inhibitor, partial curve, poor fit]
45 | COCCn1nnnc1CN1CCN(c2cccc(C(F)(F)F)c2)CC1 | inconclusive: 13.1 µM [inhibitor, single point]
46 | COCCN(C(=S)Nc1ccc(C)c(C)c1)C(C)c1ccco1 (stereo not given) | inconclusive: 11.7 µM [inhibitor, single point]
47 | CC(=O)NC(Cc1ccc(N(CCCl)CCCl)cc1)C(=O)NC(C(=O)O)C(C)C (stereo not given) | inactive
48 | CC(C)Sc1nnc(OC(=O)N(C)C)n1-c1ccccc1 | inconclusive: 10.4 µM [inhibitor, single point]

Row | Compound | Potency
49 | CCc1nnc(NC(=O)CSc2nnc(COc3ccccc3)n2Cc2ccccc2)s1 | inconclusive: 18.5 µM [inhibitor, single point]
50 | COc1cc(OC)c(NS(=O)(=O)c2ccc3c(c2)NC(=O)CO3)cc1Cl | active: 10.4 µM
51 | Nc1nc(Sc2ccc(C(F)(F)F)cc2[N+](=O)[O-])n[nH]1 | inconclusive: 1.47 µM [inhibitor, full curve, poor fit]
52 | CCOC(=O)Cn1nnc(-c2cc(OC)c(OC)c(OC)c2)n1 | inconclusive: 8.28 µM [inhibitor, partial curve, poor fit]
53 | COc1ccc(S(=O)(=O)NC(C)C(=O)NCc2ccc3c(c2)OCO3)cc1OC (stereo not given) | inactive
54 | CC(=O)Oc1c(I)cc(I)cc1C(=O)Nc1ccc(Cl)cc1 | inconclusive: 14.7 µM [inhibitor, single point]
55 | COCCCNC(=S)NCCNc1nc2cc(C)c(C)cc2cc1C#N | inconclusive: 4.15 µM [inhibitor, full curve, poor fit]
56 | Cn1c(=O)cc(OCCCC(=O)N2CCN(c3ccccc3)CC2)c2ccccc21 | inconclusive: 11.7 µM [inhibitor, partial curve, poor fit]
57 | O=C1c2ccccc2NC(c2ccc(F)cc2)N1Cc1ccco1 (stereo not given) | inactive
58 | CSc1ncnc2c1ccn2CC(=O)Nc1ccc(C)c(C)c1 | inactive
59 | COC(=O)c1[nH]c2ccc(C)cc2c1NC(=O)CN1CCN(Cc2ccccc2)CC1 | inactive
60 | CCN1CCCC1CNC(=O)c1ccc2c(c1)NC(=O)/C(=C\c1ccc(C)cc1)S2 (stereo not given) | inconclusive: 11.7 µM [inhibitor, single point]
61 | Cc1cc(Sc2nc(N(C)C)nc(N(C)C)n2)nc(Cl)n1 | inactive
62 | COc1ccc(S(=O)(=O)NCCN2CCOCC2)c2ccccc12 | inactive
63 | CC1CCC(C(=O)NC(C(=O)NCc2cccnc2)C(C)C)CC1 (stereo not given) | inconclusive: 11.7 µM [inhibitor, single point]
64 | O=C(NCCN1CCOCC1)c1cnn2c(-c3ccccc3)cc(-c3ccccc3)nc12 | active: 10.4 µM
65 | O=C(O)/C=C/c1cn(-c2ccccc2)nc1-c1ccccc1 | active: 5.86 µM
66 | Cc1cnc2ncc3sccc3c2c1 | inconclusive: 14.7 µM [inhibitor, single point]
67 | Nc1cc2ccccc2oc1=O | inconclusive: 18.5 µM [inhibitor, single point]
68 | NC(C(=O)O)C(O)c1ccc(O)c(O)c1 (stereo not given) | inconclusive: 19 µM [inhibitor, single point]
69 | COc1ccc(NS(=O)(=O)c2cc(NC(=O)c3cnc(C)cn3)ccc2N2CCCCC2)cc1 | inconclusive: 3.29 µM [inhibitor, full curve]
70 | CC(C)(C)c1cc2cccnc2n1Cc1ccccc1 | inconclusive: 10.4 µM [inhibitor, single point]
